Some of these results come from one statement about several compounds together.
Test system: Alternaria solani
Test: Activity against early blight of tomato caused by Alternaria solani (Use Example 3)
Type: in vivo, Alternaria solani on tomato cultivar Goldene Königin
Settings: 250 ppm active compound, infected next day, 5 days; untreated plants 90% infected

Cn1cc(C(=O)Nc2ccnn2-c2ccc(-c3ccc(Cl)cc3)cc2)c(C(F)(F)F)n1 [example 46]
infection: at most 5%
